According to the supplement of paper PMC8728848:
Some of the results follow.

Experiments:
Assay in all cases: glycan array binding signal (z-score within array); higher = stronger binding
Details in all cases: glycan notation: IUPAC condensed, linker removed; mutation: R276L
[1] = target: Neu5Gc(a2-8)Neu5Gc(a2-3)Gal(b1-4)GlcNAc(b1-3)Gal(b1-4)GlcNAc
In short: (§1)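 Glycan array data came from 3228 arrays in the Consortium for Functional Glycomics database, and only arrays with an available protein sequence were kept. Glycan names were put into IUPAC-condensed notation, and columns mapping to the same glycan were averaged. The binding signal is a within-array Z-score, averaged across arrays of one protein sequence run at different concentrations or buffers and across linkers. A negative Z-score can be read as non-binding.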

[2] = target: Neu5Gc(a2-8)Neu5Gc(a2-6)Gal(b1-4)GlcNAc
In short: as §1

[3] = target: Neu5Gc(b2-6)Gal(b1-4)GlcNAc
In short: as §1

B1: SUN4P (Saccharomyces cerevisiae), P53616 (protein)
chain: MGSSHHHHHHSSGLVPRGSHNGSIYGDLADFSGPYEKFEDGTIPCGQFPSGQGVIPISWLDEGGWSGVENTDTSTGGSCKEGSYCSYACQPGMSKTQWPSDQPSDGRSIGGLLCKDGYLYRSNTDTDYLCEWGVDAAYVVSELSNDVAICLTDYPGTENMVIPTYVQAGDSLPLTVVDQDTYYTWQGLKTSAQYYVNNAGISVEDACVWGSSSSGVGNWAPLNFGAGSSDGVAYLSLIPNPNNGNALNFNVKIVAADDSSTVNGECIYENGSFSGGSDGCTVSVTAGKAKFVLYN
- glycan array binding signal (z-score) [1]: -0.229
- glycan array binding signal (z-score) [2]: -0.041
- glycan array binding signal (z-score) [3]: -0.154
